Experimental data: PubChem BioAssay AID504764 (Drosophila RNAi Screening Center, 2011)
Test: 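Knock-downs that raise or lower a Notch target reporter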 (primary screen). Cells: Drosophila Kc167 cells. Knock-down reagent: long dsRNA against Drosophila genes. Timing: about 5 days (4 days dsRNA, then 24 h after transfection). Challenge: transfection of constitutively active membrane-tethered Notch lacking the extracellular domain, read 24 h later. Detection: 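Light from a Notch-responsive E(spl)m3 luciferase reporter under active Notch, with control-promoter and no-Notch reporter wells to normalise; raw counts from paired wells a and b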. Reading the numbers: induced reporter light, run 1, well a and induced reporter light, run 1, well b: higher = more light from the Notch target reporter with active Notch; control promoter light, run 1, well a and control promoter light, run 1, well b: higher = more light from the viral control promoter (cell number, transfection, viability); uninduced reporter light, run 1, well a: higher = more light from the Notch target reporter without active Notch. Call rule: 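Wells with low control signal or poorly matching duplicates excluded; duplicates averaged; per source plate, z beyond ±2 for induced/control log2 ratio or beyond ±1.8 for induced/uninduced marks a hit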. Meaning of the calls: active = modifier hit (raised or lowered Notch signal); inactive = not a hit.
The screen tested about 22,000 reagents; shown is a random part of those that have a named target and a result. Of all reagents, 403 (1.9%) got an active call. 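Unnormalised raw counts per well; ratio z-scores behind the hit calls and whether each hit raises or lowers signal are not deposited.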 Not given: the amount of reagent.

| target | dsRNA | induced reporter light, run 1, well a | induced reporter light, run 1, well b | control promoter light, run 1, well a | control promoter light, run 1, well b | uninduced reporter light, run 1, well a | activity call |
| --- | --- | --- | --- | --- | --- | --- | --- |
| Slu7 | DRSC14729 | 54800 | 40175 | 62385 | 78765 | 3465 | inactive |
| APC4 | DRSC18360 | 2.13e5 | 1.79e5 | 2.43e5 | 2.59e5 | 12135 | inactive |
| CG15147 | DRSC02447 | 1.34e5 | 1.45e5 | 1.21e5 | 1.65e5 | 10635 | inactive |
| CG15147 | DRSC02448 | 1.21e5 | 1.18e5 | 1.63e5 | 1.56e5 | 10270 | inactive |
| Alg-2 | DRSC07799 | 42880 | 58820 | 91050 | 85935 | 2185 | inactive |
| CG3513 | DRSC00608 | 1.73e5 | 1.55e5 | 1.93e5 | 1.55e5 | 8550 | inactive |
| trp | DRSC17088 | 2.03e5 | 1.85e5 | 2.56e5 | 2.22e5 | 15915 | inactive |
| Spn31A | DRSC02780 | 1.14e5 | 1.21e5 | 72030 | 87200 | 15770 | inactive |
| CG12448 | DRSC01967 | 1.29e5 | 1.33e5 | 1.47e5 | 1.66e5 | 11665 | inactive |
| CG42262 (retired record) | DRSC17628 | 77700 | 72435 | 79060 | 78695 | 4450 | inactive |
| CG42262 (retired record) | DRSC17974 | 1.15e5 | 99040 | 1.55e5 | 1.60e5 | 8750 | inactive |
| CtsK2 | DRSC06897 | 98520 | 92995 | 1.48e5 | 2.04e5 | 10705 | inactive |
| nudC | DRSC11096 | 1.05e5 | 1.11e5 | 1.15e5 | 93470 | 6855 | inactive |
| nudC | DRSC11097 | 1.59e5 | 1.57e5 | 1.79e5 | 1.79e5 | 11860 | inactive |
| PyK | DRSC16806 | 1.63e5 | 1.39e5 | 1.55e5 | 1.73e5 | 10600 | inactive |
| TrpRS | DRSC14097 | 76295 | 1.09e5 | 1.18e5 | 1.16e5 | 8760 | inactive |
| CG41099 | DRSC21049 | 96235 | 89105 | 89880 | 1.41e5 | 9425 | inactive |
| CG41099 | DRSC21051 | 86800 | 1.06e5 | 89855 | 1.06e5 | 9525 | inactive |

5 of these entries, set out differently.
target	dsRNA	induced reporter light, run 1, well a	induced reporter light, run 1, well b	control promoter light, run 1, well a	control promoter light, run 1, well b	uninduced reporter light, run 1, well a	activity call
Slu7	DRSC14729	54800	40175	62385	78765	3465	inactive
APC4	DRSC18360	2.13e5	1.79e5	2.43e5	2.59e5	12135	inactive
CG15147	DRSC02447	1.34e5	1.45e5	1.21e5	1.65e5	10635	inactive
CG15147	DRSC02448	1.21e5	1.18e5	1.63e5	1.56e5	10270	inactive
Alg-2	DRSC07799	42880	58820	91050	85935	2185	inactive

Additional reagents follow.
| target | dsRNA | induced reporter light, run 1, well a | induced reporter light, run 1, well b | control promoter light, run 1, well a | control promoter light, run 1, well b | uninduced reporter light, run 1, well a | activity call |
| --- | --- | --- | --- | --- | --- | --- | --- |
| Ranbp16 | DRSC20160 | 89840 | 1.01e5 | 1.31e5 | 87495 | 11850 | inactive |
| CG13288 | DRSC09962 | 2.92e5 | 2.00e5 | 2.20e5 | 2.25e5 | 7740 | inactive |
| CG9308 | DRSC04539 | 44340 | 43215 | 42110 | 30940 | 2570 | inactive |
| Irp-1B | DRSC16720 | 89565 | 74580 | 68830 | 65720 | 5475 | inactive |
| CG43689 | DRSC18383 | 6420 | 6760 | 9825 | 11328 | 3440 | inactive |
| CG13126 | DRSC02222 | 1.79e5 | 2.19e5 | 87870 | 1.33e5 | 21545 | inactive |
| NaPi-T | DRSC07476 | 84100 | 91650 | 1.29e5 | 1.35e5 | 8920 | inactive |
| CG17065 | DRSC20544 | 97435 | 99645 | 1.10e5 | 1.23e5 | 11650 | inactive |
| dco | DRSC16929 | 49820 | 56725 | 69140 | 62905 | 4575 | inactive |
| CG30460 | DRSC06559 | 1.00e5 | 84905 | 1.39e5 | 1.14e5 | 8370 | inactive |
| CG30460 | DRSC06560 | 5660 | 9210 | 9432 | 9970 | 3910 | inactive |
| CG6283 | DRSC16009 | 1.08e5 | 1.06e5 | 1.45e5 | 1.35e5 | 9478 | inactive |
| Prp18 | DRSC16802 | 1.49e5 | 1.45e5 | 1.52e5 | 1.52e5 | 12025 | inactive |
| PGRP-LB | DRSC14926 | 1.36e5 | 1.16e5 | 86585 | 79680 | 9515 | inactive |
| CG8237 | DRSC07119 | 1.77e5 | 1.59e5 | 1.71e5 | 1.49e5 | 13930 | inactive |
| CG42789 | DRSC13793 | 2.64e5 | 2.35e5 | 3.44e5 | 3.47e5 | 15480 | inactive |
| CG17549 | DRSC02625 | 1.88e5 | 1.93e5 | 2.02e5 | 2.13e5 | 16590 | inactive |
| CG15046 | DRSC19622 | 1.21e5 | 1.10e5 | 1.38e5 | 1.25e5 | 14260 | inactive |
| CG10086 | DRSC14183 | 83690 | 93300 | 1.08e5 | 78930 | 6090 | inactive |
| ppk21 | DRSC14466 | 1.38e5 | 1.36e5 | 1.76e5 | 1.68e5 | 11160 | inactive |
| CG5455 | DRSC15805 | 1.92e5 | 2.27e5 | 2.17e5 | 2.39e5 | 15950 | inactive |
| CG3092 | DRSC04336 | 1.69e5 | 1.80e5 | 1.89e5 | 1.84e5 | 14685 | inactive |
| mtgo | DRSC02245 | 1.50e5 | 1.49e5 | 1.40e5 | 1.58e5 | 14115 | inactive |
| mtgo | DRSC02246 | 10390 | 8085 | 8460 | 7790 | 3810 | inactive |
| mtgo | DRSC02769 | 2.29e5 | 2.40e5 | 1.98e5 | 2.01e5 | 18130 | inactive |
| mtgo | DRSC21392 | – | – | – | – | – | inactive |
| Eps-15 | DRSC04288 | 55595 | 55930 | 56350 | 45145 | 4635 | inactive |
| Hsp60D | DRSC02543 | 1.21e5 | 1.38e5 | 1.37e5 | 1.56e5 | 10615 | inactive |
| CG11357 | DRSC08183 | 1.62e5 | 1.80e5 | 2.39e5 | 1.99e5 | 14020 | inactive |
| l(2)03659 | DRSC07269 | 1.78e5 | 1.73e5 | 2.36e5 | 2.10e5 | 15090 | inactive |
| l(2)03659 | DRSC07638 | 2.00e5 | 1.44e5 | 1.57e5 | 1.56e5 | 12300 | inactive |
| zetaTry | DRSC07720 | 1.26e5 | 1.32e5 | 1.66e5 | 1.75e5 | 12628 | inactive |
